In patent US20190100602A1 one finds binding data, which are given here for seven molecules.

B1: KB-AT-002 (VHH)
VHH: QVQLVQSGGGLVQAGGSLRLSCAASGRTFNNNGMGWFRQAPGKEREFVAAISWSGGSTYYADSVKGRYIMSRDNAKNTVYLQMNSLKPEDTAVYYCAARTRYNSGLFSRNYDYWGQGTQVTVSS
B2: KB-AT-006 (VHH)
VHH: B1 VHH with V5Q, N30S, G55S, I69T, M70I, L106Y, S108T
B3: KB-AT-004 (VHH)
VHH: VQLQQSGGGLVQPGGSLRLSCAASAMTFSIRAWAWYRQAPGKQRELVASIGTGDITNYADSVKGRFTISRDNAKNTFYLQMNSLKPEDTAVYYCNGYRSTYAWGQGTQVTVSS
B4: KB-AT-001 (VHH)
VHH: QVQLQQSGGDLAQRGGSLRLSCAASGRTFRNYVMGWFRQAPGKDPEFIAGINRSGAITYYGDSVKGRFTISRDNAKNTVSLQMNSLEPEDTAVYYCAAGETTWSIRRDDYDYWGQGTQVTVSS
B5: KB-AT-003 (VHH)
VHH: QVQLVQSGGGLVQPGGSLRLSCAASALTFSSRAWAWYRQAPGKQRELVASITGGGTTNYADSVKGRFTISRDNAKNTVYLQMNSLKPEDTAVHYCNGYRYTYAWGQGTQVTVSS
B6: KB-AT-005 (VHH)
VHH: EVQLVESGGGLVQPGGSLRLSCEASGRDFNDAALGWSRQVPGKARETVAMITSGGVRNYAETVKDRFTISRDNAKNTVYLDMNNLQPDDTGVYYCKADSFKGDYDTSWYLYWGQGTQVTVSS
B7: KB-AT-007 (VHH)
VHH: B4 VHH with D10G, A12V, R14A

Substitutions are numbered along the chain they refer to. No constants are given. Whether binding was seen depends on the method and setting. Binding can be weak; no strength is given.

One assay concerns the target rat antithrombin (rat). As to the kind of experiment: description, summary of cross-reaction; assay not named.
As for B1, the binding entry is “binds”.
Same read-out and setting: the value for B2 was “binds”; that for B3 was “binds”.
In the case of B4, the binding result is reported as “binds”.
On the same count and under the same terms, the value for B5 was “binds”.

For a further assay, the target named is rabbit antithrombin (rabbit). The assay is described as above.
With B1, the binding entry is “binds”.
On the same count and under the same terms, the value for B2 was “binds”; that for B4 was “binds”.

For a further assay, the target named is porcine antithrombin (porcine). The description is as above.
For B1, the binding entry was “binds”.
Still for that read-out and setting: in the case of B2 it was “binds”; in that of B3, “binds”.

The target of a further assay is simian antithrombin (simian). Described as above.
Turning to B6, the binding result is on record as “binds”.
Same read-out and setting: the value for B1 was “binds”; that for B2 was “binds”.
Same read-out and setting: the value for B3 was “binds”.
Same read-out and setting: the value for B7 was “binds”; that for B4 was “binds”; that for B5 was “binds”.

Another assay addresses canine antithrombin (canine). Described as above.
For B1, the binding entry is “binds”.
Same read-out and setting: in the case of B2 it was “binds”; in that of B3, “binds”.
As to B5, the binding result is recorded as “binds”.
